Experimental data published in patent US20240374532A1.
No constants are given. Whether binding was seen depends on the method and setting. Some binding calls cover weakened binding; strength is not graded here.

Protein sequences, listed by entry. Tags and fused reporters are not part of them. Residues count along the entry.
UniProt P10415, residues 1-218: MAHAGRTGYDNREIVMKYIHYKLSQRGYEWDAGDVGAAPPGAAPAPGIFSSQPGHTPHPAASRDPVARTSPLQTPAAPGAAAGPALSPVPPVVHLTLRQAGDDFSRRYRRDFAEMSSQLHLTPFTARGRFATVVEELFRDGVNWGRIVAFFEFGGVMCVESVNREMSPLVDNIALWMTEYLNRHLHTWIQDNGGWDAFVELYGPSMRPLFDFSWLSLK

Tests used:
[1] = target: T1, Casp8p41 activator peptide; test: SPR, Casp8p41 activator peptide immobilized; bar chart of dissociation constants from three experiments
T1 sequence (peptide): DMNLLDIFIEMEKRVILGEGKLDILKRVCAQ

[2] = target: T1, Casp8p41 activator peptide; test: SPR, Casp8p41 BH3-like (activator) peptide immobilized, analyte at 800 nM

binding [1]: binds | binding [2]: binds
Substance: GST-Bcl-2 (from UniProt P10415 1-218)
